Data from paper PMC4751553.
These are yes or no findings as the source states them, for the method shown. Binding seen in cells or lysates may run through a third protein. A result given as binding can be weak or reduced; the word gives no strength. Sequences can lack the tags named with a protein.

Protein sequences, listed by entry. Tags and fused reporters are not part of them. Lines headed by an entry give the natural chain unless they say otherwise; changes in a name come on top.
UniProt Q05670: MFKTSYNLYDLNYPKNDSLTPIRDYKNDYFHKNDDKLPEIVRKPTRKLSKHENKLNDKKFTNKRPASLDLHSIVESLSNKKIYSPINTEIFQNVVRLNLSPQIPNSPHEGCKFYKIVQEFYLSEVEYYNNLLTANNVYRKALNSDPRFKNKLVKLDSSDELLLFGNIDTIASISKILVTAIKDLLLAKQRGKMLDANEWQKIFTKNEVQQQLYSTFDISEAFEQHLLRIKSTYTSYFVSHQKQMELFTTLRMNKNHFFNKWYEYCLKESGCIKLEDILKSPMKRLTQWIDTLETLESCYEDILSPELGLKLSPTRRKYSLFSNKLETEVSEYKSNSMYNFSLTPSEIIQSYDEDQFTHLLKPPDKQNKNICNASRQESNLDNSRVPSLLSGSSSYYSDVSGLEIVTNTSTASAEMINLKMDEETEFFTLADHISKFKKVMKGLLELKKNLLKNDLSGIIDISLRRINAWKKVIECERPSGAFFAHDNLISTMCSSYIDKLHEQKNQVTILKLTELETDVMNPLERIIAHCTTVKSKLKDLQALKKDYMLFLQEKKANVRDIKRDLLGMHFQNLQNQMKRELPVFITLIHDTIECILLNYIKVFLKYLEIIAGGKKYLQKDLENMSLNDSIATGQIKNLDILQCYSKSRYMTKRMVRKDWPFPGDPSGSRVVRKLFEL

Biological target: T1, Rvs161p tagged with an internal FLAG tag inserted after amino acid 85 (wild type) (S. cerevisiae) (UniProt P25343)
T1 sequence: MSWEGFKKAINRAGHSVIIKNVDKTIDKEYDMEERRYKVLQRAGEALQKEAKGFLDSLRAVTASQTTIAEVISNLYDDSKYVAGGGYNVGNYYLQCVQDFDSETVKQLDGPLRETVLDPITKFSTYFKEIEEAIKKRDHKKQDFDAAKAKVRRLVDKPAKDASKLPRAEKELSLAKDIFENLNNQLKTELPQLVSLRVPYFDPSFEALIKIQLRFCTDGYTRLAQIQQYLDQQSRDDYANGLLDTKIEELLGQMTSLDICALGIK
Assay: co-IP; lysates of pheromone-induced S. cerevisiae (galactose medium, 10 μg/ml pheromone, 2 hr); Rvs161p-FLAG held on anti-FLAG M2 affinity gel, 1 hr at 4°, 50 mM Tris pH 7.4, 150 mM NaCl, 0.5% Triton X-100; bound Fus2p-GFP detected by western blot with anti-GFP

- binding: binds
Substance: Fus2p^1–670 (GFP-tagged C-terminal truncation) (from UniProt Q05670) (domain or fragment)
